Test results published in PubChem BioAssay AID1345085 (National Center for Advancing Translational Sciences (NCATS), 2018).
This list was built around the results that the source calls inconclusive (neither active nor inactive); the mix of calls is not that of the screen. A potency beside an inconclusive call is a rough fit, not a confirmed value. Activity calls are given as the source filed them. Calls come from the whole dose curve; as a rule, active = well fitted cell-killing curve with a large enough effect; inconclusive = small, poorly fitted or top-dose-only effect, or effect the other way; inactive = no such curve, though single readings can be large or run the other way. *1 amine or outer side, *2 acyl side, *3 side chain or, on linkers, in order; H or OH if unused. Where a SMILES comes first, the peptide text is derived from it. Bridges are numbered along the chain shown (N, C = ends). Roman numbers before positions name the chains, in order. [ ]: non-standard residue; d: D form. Actinocin(9to1) = Cc1c2oc3c(C)ccc(C(=O)[*:1])c3nc-2c(C(=O)[*:2])c(N)c1=O; NMeV = CN[C@H](C(=O)O)C(C)C; Sar = CNCC(=O)O
Note: nearly all actives have a fitted effect of over 55% in size.
Potency is the fitted concentration of half-maximal effect.

Each compound was assayed on Hek293T (assay: Confirmatory qHTS for gynecologic anti-cancer compounds from libraries of approved drugs and bioactive compounds). Conditions: gynecologic cancer cell panel viability, ATPlite luminescence, 48 h; series mostly up to 57.6 µM.
Procedure, shortened: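 Cells (1,000/well) were plated, left 16 h at 37 C/5% CO2, then given compound at 11 concentrations (1:3) from 57.5 uM to 0.977 nM for 48 h. ATPlite luminescence after 15 min at room temperature gave IC50 values.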
With COc1ccc2c(c1OC)C(=O)O[C@@H]2[C@H]1c2c(cc3c(c2OC)OCO3)CCN1C the Potency was “inactive”. For Cc1ccc(NC(=O)c2ccc(CN3CCN(C)CC3)cc2)cc1Nc1nccc(-c2cccnc2)n1, the Potency was inconclusive: 43.2 µM [cytotoxic, single point]. In the case of Cc1nc(NC(=O)N2CCCC2C(N)=O)sc1-c1ccnc(C(C)(C)C(F)(F)F)c1 (centres undefined), the Potency is reported as inconclusive: 6.11 µM [cytotoxic, partial curve, poor fit]. For Nc1nc(Cl)nc2c1ncn2C1OC(CO)C(O)C1F (centres undefined), the Potency was inconclusive: 8.63 µM [cytotoxic, partial curve]. In the case of COc1cc2nccc(Oc3ccc(NC(=O)C4(C(=O)Nc5ccc(F)cc5)CC4)cc3)c2cc1OC, the Potency is reported as inconclusive: 34.3 µM [cytotoxic, single point]. Cc1cc(Nc2cc(N3CCN(C)CC3)nc(/C=C/c3ccccc3)n2)n[nH]1 was tested, and the Potency was inconclusive: 43.2 µM [cytotoxic, partial curve, poor fit]. CCN1CCN(Cc2ccc(Nc3ncc(F)c(-c4cc(F)c5nc(C)n(C(C)C)c5c4)n3)nc2)CC1 was tested, and the Potency was “inactive”. CN(c1nccc(=O)[nH]1)C1CCN(c2nc3ccccc3n2Cc2ccc(F)cc2)CC1 was tested, and the Potency was “inactive”. For c1nc2nc(Nc3ccc(N4CCOCC4)cc3)nc(NC3CCCCC3)c2[nH]1, the Potency was inconclusive: 0.668 µM [cytotoxic, full curve, poor fit]. O=C(NCC(O)CO)c1ccncc1Nc1ccc(I)cc1F (centres undefined) was tested, and the Potency was inconclusive: 43.2 µM [cytotoxic, single point]. With CC(C)Nc1cc(-c2c[nH]c(C(=O)N[C@H](CO)c3cccc(Cl)c3)c2)c(Cl)cn1 the Potency was “inactive”. For Cc1nc(N)sc1-c1ccnc(Nc2ccc(N3CCOCC3)cc2)n1, the Potency was inconclusive: 10.9 µM [cytotoxic, partial curve, poor fit]. With C[C@@]1(C(=O)Nc2ccc(F)nc2)CCCN1c1nc(Nc2cc(C3CC3)[nH]n2)c2cccn2n1 the Potency was “inactive”. In the case of CCCC(Nc1nc(-c2ccc(NC(=O)NCC)c(OC)c2)ncc1C)c1cccnc1 (centres undefined), the Potency is reported as “inactive”. In the case of CC(=O)OC12COC1CC(O)C1(C)C(=O)C(O)C3=C(C)C(OC(=O)C(O)C(NC(=O)OC(C)(C)C)c4ccccc4)CC(O)(C(OC(=O)c4ccccc4)C21)C3(C)C (centres undefined), the Potency is reported as inconclusive: 12.2 µM [cytotoxic, full curve, poor fit]. In the case of CC(=O)NCC(=O)N1C2CCC1c1cc(Nc3ncc(C(F)(F)F)c(NC4CCC4)n3)ccc12 (centres undefined), the Potency is reported as inconclusive: 17.2 µM [cytotoxic, partial curve]. In the case of COc1ccc(OC)c(-c2nnc3ccc(-c4ccc(OC)c(O[C@@H]5CCOC5)c4)nn23)c1, the Potency is reported as inconclusive: 2.43 µM [cytotoxic, full curve]. With CCN1C[C@H](C)n2c(c(O)c3c(=O)n(Cc4ccc(F)c(Cl)c4)nc(C(=O)NC)c32)C1=O the Potency was inconclusive: 10.9 µM [rising, full curve]. For Cn1c(=O)c(F)c(Nc2ccc(I)cc2F)c2c(=O)n(CC(O)CO)cnc21 (centres undefined), the Potency was inconclusive: 0.0685 µM [cytotoxic, full curve]. For O=C1c2c(O)ccc(O)c2C(=O)c2c(NCCNCCO)ccc(NCCNCCO)c21, the Potency was active: 0.863 µM. In the case of CNc1nccc(-c2cccnc2Oc2cc(C(=O)Nc3cccc(C(F)(F)F)c3)ccc2C)n1, the Potency is reported as inconclusive: 3.06 µM [cytotoxic, full curve, poor fit]. In the case of O=c1c2ccccc2nc2n1CCc1c-2[nH]c2ccccc12, the Potency is reported as inconclusive: 0.0054 µM [cytotoxic, full curve, poor fit]. In the case of CC(C)C[C@H](NC(=O)[C@H](CCc1ccccc1)NC(=O)CN1CCOCC1)C(=O)N[C@@H](Cc1ccccc1)C(=O)N[C@@H](CC(C)C)C(=O)[C@@]1(C)CO1, the Potency is reported as active: 3.43 µM. CCc1nc(C(N)=O)c(Nc2ccc(N3CCC(N4CCN(C)CC4)CC3)c(OC)c2)nc1NC1CCOCC1 was tested, and the Potency was inconclusive: 11.9 µM [cytotoxic, partial curve, poor fit]. In the case of Cc1cnc(Nc2ccc(OCCN3CCCC3)cc2)nc1Nc1cccc(S(=O)(=O)NC(C)(C)C)c1, the Potency is reported as inconclusive: 27.3 µM [cytotoxic, partial curve, poor fit]. In the case of C#C[C@]1(O)CC[C@H]2[C@@H]3CCC4=CC(=O)CC[C@@H]4[C@H]3CC[C@@]21CC, the Potency is reported as inconclusive: 1.22 µM [cytotoxic, full curve, poor fit]. With Cc1cc(C(=O)N2CCN(c3cccc(Cl)c3)CC2)n(-c2ccccc2)n1 the Potency was inconclusive: 0.0968 µM [cytotoxic, single point]. With CCN(CC)CCCC(C)Nc1c2ccc(Cl)cc2nc2ccc(OC)cc12 (centres undefined) the Potency was inconclusive: 27.3 µM [cytotoxic, single point]. For O=C1N(c2ccccc2)c2ccccc2C1(Cc1ccncc1)Cc1ccncc1, the Potency was inconclusive: 43.2 µM [cytotoxic, partial curve, poor fit]. In the case of CCN(CC)CCCC(C)Nc1ccnc2cc(Cl)ccc12 (centres undefined), the Potency is reported as inconclusive: 0.0168 µM [cytotoxic, full curve]. In the case of COc1cc2c(NC3CCN(C(C)C)CC3)nc(C3CCCCC3)nc2cc1OCCCN1CCCC1, the Potency is reported as active: 9.68 µM. In the case of CCC1=CC2CN(C1)Cc1c([nH]c3ccccc13)[C@@](C(=O)OC)(c1cc3c(cc1OC)N(C)[C@H]1[C@@](O)(C(=O)OC)[C@H](OC(C)=O)[C@]4(CC)C=CCN5CC[C@]31[C@@H]54)C2 (some centres undefined), the Potency is reported as inconclusive: 0.0106 µM [cytotoxic, full curve]. In the case of Cc1ccn(-c2ccc(-c3ncco3)cc2)c(=O)c1-c1ccc2nc(N)ncc2c1, the Potency is reported as “inactive”. Cc1c2oc3c(C)ccc(C(=O)N[C@@H]4C(=O)N[C@H](C(C)C)C(=O)N5CCC[C@H]5C(=O)N(C)CC(=O)N(C)[C@@H](C(C)C)C(=O)O[C@@H]4C)c3nc-2c(C(=O)N[C@@H]2C(=O)N[C@H](C(C)C)C(=O)N3CCC[C@H]3C(=O)N(C)CC(=O)N(C)[C@@H](C(C)C)C(=O)O[C@@H]2C)c(N)c1=O (I: T[dV]P[Sar][NMeV] / II: T[dV]P[Sar][NMeV]; ester I:1-I:C, II:1-II:C; linker I:N-II:N via Actinocin(9to1)) was tested, and the Potency was inconclusive: 0.306 µM [cytotoxic, full curve].
